Measurements reported in patent US20060263760A1, “Screening method of substance with antidepressant action” (THE UNIVERSITY OF TOKYO, priority 2005, published 2006).
At least one structure is not confirmed: it was looked up by name or label, or the drawing left a doubt.

Test system: nerve cells in hippocampus CA1 region of hippocampus sections
Assay: long-term potentiation of excitatory postsynaptic potential (EPSP) in hippocampus sections, accumulated potential with single glass electrode
Type: cell-based, rat
Conditions: simultaneous contact to corticosteron 1 μM and estradiol 1 nM
Procedure: A specific example of the assessment of substances with antidepressant actions by the screening method is described below. At the cell preparation step in the Example, the brain hippocampus of an adult rat was cut vertically along the longitudinal axis using vibratome (DSK ZERO1, manufactured by DOUSAKA EM K.K), to prepare plural longitudinal cross- sectional sections of a thickness of 400 μm. In this Example, a part of the hippocampus sections is prepared as a candidate substance treatment group, while another part of the hippocampus sections is prepared as a control treatment group and an additional part of the hippocampus sections is prepared as non-treatment group. […] At the cell preparation step, additionally, the presynaptic fibers in the CA1 regions of the hippocampus sections were repeatedly stimulated at an interval of 20 seconds, using the stimulation electrode, while excitatory postsynaptic potential induced by the electric stimulation was recorded as accumulated potential over about 30 minutes. […] Therefore, it was determined to assess the dimension of the slope in the part M with the most rapid change of the accumulated potential on the stimulation [namely, the largest slope on the earlier side of the assay time period of accumulated potential waveform (on the left side)] […]

C[C@]12CC[C@@H]3c4ccc(O)cc4CC[C@H]3[C@@H]1CC[C@@H]2O [estradiol]
suppression of the corticosteron-induced reduction of the long-term potentiation level: nearly completely suppressed
